The experiment concerns the target TrkB, endogenous in rat cortical neuronal cultures (rat (endogenous in cortical neuronal cultures)) (UniProt Q63604). Put plainly: ELISA; plates coated with goat anti-TrkB, loaded with lysates of rat cortical cultures (DMSO or LSD 1-100 nM, 1 h) or of PFC or hippocampus of mice killed 1 h after LSD (0.1 mg kg^-1); detected with rabbit anti-PLCγ1. (In general: An ELISA detects its analyte on a solid surface through an enzyme-linked reagent.)

Sequences of proteins named here, by UniProt entry; tags and fusion partners are left off. Residues count along the entry.
UniProt Q63604, residues 32-821: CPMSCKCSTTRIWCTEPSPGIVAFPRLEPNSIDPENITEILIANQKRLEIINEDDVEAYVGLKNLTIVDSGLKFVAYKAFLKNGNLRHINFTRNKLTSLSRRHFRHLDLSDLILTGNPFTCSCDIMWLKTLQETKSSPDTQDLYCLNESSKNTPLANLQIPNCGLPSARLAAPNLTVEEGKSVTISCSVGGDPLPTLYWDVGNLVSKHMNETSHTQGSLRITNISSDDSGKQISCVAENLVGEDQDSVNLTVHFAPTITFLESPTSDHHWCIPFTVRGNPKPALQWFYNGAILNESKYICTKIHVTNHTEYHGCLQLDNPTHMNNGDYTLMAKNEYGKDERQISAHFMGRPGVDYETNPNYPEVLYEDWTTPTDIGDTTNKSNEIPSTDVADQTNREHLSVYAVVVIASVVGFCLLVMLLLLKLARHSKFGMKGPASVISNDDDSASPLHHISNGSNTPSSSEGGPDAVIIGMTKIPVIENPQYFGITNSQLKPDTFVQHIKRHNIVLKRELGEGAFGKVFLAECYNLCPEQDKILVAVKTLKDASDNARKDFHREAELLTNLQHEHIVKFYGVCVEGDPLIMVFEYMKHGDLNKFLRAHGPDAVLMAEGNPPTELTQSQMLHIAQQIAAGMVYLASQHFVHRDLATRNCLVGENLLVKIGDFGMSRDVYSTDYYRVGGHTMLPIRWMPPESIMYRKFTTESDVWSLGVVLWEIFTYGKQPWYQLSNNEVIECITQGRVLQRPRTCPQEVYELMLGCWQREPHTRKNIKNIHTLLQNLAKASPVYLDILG

Binding data for one molecule are collected here from paper PMC10244169, “Psychedelics promote plasticity by directly binding to BDNF receptor TrkB” (Nature Neuroscience, 2023).

These are yes or no findings as the source states them, for the method shown. Some entries that bind do so weakly or less than the wild type.

B1: phospholipase C gamma 1 (PLCγ1), endogenous in rat cortical neuronal cultures (enzyme, UniProt P10686 1-1290)
chain: MAGVGTPCANGCGPSAPSEAEVLHLCRSLEVGTVMTLFYSKKSQRPERKTFQVKLETRQITWSRGADKIEGSIDIREIKEIRPGKTSRDFDRYQEDPAFRPDQSHCFVILYGMEFRLKTLSLQATSEDEVNMWIKGLTWLMEDTLQAATPLQIERWLRKQFYSVDRNREDRISAKDLKNMLSQVNYRVPNMRFLRERLTDFEQRSGDITYGQFAQLYRSLMYSAQKTMDLPFLETNTLRTGERPELCQVSLSEFQQFLLEYQGELWAVDRLQVQEFMLSFLRDPLREIEEPYFFLDELVTFLFSKENSVWNSQLDAVCPETMNNPLSHYWISSSHNTYLTGDQFSSESSLEAYARCLRMGCRCIELDCWDGPDGMPVIYHGHTLTTKIKFSDVLHTIKEHAFVASEYPVILSIEDHCSIAQQRNMAQHFRKVLGDTLLTKPVDIAADGLPSPNQLKRKILIKHKKLAEGSAYEEVPTSVMYSENDISNSIKNGILYLEDPVNHEWYPHYFVLTSSKIYYSEETSSDQGNEDEEEPKEASGSTELHSSEKWFHGKLGAGRDGRHIAERLLTEYCIETGAPDGSFLVRESETFVGDYTLSFWRNGKVQHCRIHSRQDAGTPKFFLTDNLVFDSLYDLITHYQQVPLRCNEFEMRLSEPVPQTNAHESKEWYHASLTRAQAEHMLMRVPRDGAFLVRKRNEPNSYAISFRAEGKIKHCRVQQEGQTVMLGNSEFDSLVDLISYYEKHPLYRKMKLRYPINEEALEKIGTAEPDYGALYEGRNPGFYVEANPMPTFKCAVKALFDYKAQREDELTFTKSAIIQNVEKQDGGWWRGDYGGKKQLWFPSNYVEEMINPAILEPEREHLDENSPLGDLLRGVLDVPACQIAIRPEGKNNRLFVFSISMPSVAQWSLDVAADSQEELQDWVKKIREVAQTADARLTEGKMMERRKKIALELSELVVYCRPVPFDEEKIGTERACYRDMSSFPETKAEKYVNKAKGKKFLQYNRLQLSRIYPKGQRLDSSNYDPLPMWICGSQLVALNFQTPDKPMQMNQALFMAGGHCGYVLQPSTMRDEAFDPFDKSSLRGLEPCVICIEVLGARHLPKNGRGIVCPFVEIEVAGAEYDSTKQKTEFVVDNGLNPVWPAKPFHFQISNPEFAFLRFVVYEEDMFSDQNFLAQATFPVKGLKTGYRAVPLKNNYSEDLELASLLIKIDIFPAKENGDLSPFSGTSLRERASDASSQLFHVRAREGSFEARYQQPFEDFRISQEHLADHFDSRERRAPRRTRVNGDNRL
B1: the binding entry is given as “binds”.
